Data reported in article doi:10.1101/2020.01.21.913905.
No constants are given. Whether binding was seen depends on the method and setting. For some assays here: A result given as binding can be weak or reduced; the word gives no strength. For some assays here: Binding seen in cells or lysates may run through a third protein.

By UniProt entry, the sequences of proteins in these tests, tags left out. Where a name states a change or a piece, a line headed by the entry shows the natural chain unless it says otherwise.
UniProt P36397: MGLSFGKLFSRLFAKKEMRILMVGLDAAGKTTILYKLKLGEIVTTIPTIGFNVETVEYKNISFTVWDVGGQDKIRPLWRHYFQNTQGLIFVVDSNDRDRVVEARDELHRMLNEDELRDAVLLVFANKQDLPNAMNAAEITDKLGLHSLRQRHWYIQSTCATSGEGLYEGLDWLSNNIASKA
UniProt Q42510: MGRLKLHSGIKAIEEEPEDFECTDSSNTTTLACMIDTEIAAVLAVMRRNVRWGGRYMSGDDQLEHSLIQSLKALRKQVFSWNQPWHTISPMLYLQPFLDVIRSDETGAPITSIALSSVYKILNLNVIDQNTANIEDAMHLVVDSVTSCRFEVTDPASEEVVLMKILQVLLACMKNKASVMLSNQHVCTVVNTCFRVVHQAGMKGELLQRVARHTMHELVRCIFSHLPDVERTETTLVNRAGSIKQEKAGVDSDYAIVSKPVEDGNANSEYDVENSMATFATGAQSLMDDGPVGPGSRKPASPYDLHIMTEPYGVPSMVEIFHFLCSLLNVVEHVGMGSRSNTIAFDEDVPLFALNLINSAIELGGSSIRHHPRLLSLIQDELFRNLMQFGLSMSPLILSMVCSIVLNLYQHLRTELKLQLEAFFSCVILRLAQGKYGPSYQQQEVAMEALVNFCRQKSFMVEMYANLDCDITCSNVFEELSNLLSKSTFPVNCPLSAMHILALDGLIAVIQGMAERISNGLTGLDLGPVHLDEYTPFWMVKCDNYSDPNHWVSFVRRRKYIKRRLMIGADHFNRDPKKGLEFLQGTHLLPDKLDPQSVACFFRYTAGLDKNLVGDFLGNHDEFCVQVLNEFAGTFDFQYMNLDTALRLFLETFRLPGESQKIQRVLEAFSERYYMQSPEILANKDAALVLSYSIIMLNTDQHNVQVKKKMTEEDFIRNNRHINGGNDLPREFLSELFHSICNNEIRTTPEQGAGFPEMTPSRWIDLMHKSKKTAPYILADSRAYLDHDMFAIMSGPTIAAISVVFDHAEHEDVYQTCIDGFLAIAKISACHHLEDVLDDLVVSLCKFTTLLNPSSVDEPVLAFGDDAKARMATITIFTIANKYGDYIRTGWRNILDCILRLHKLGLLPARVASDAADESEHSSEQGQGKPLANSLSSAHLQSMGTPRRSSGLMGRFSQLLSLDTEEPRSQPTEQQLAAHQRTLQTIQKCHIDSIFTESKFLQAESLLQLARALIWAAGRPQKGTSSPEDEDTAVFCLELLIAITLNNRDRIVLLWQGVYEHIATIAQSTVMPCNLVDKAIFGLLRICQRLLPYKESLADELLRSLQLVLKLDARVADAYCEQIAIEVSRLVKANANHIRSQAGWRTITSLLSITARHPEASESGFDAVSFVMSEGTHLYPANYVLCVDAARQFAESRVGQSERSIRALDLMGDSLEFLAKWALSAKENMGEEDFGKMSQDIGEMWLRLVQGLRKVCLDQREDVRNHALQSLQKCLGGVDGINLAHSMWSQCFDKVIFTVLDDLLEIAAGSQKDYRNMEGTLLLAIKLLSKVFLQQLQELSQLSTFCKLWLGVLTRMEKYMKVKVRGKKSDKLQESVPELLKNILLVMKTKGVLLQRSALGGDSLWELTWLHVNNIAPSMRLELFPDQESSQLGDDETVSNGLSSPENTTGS

Experiments:
[1] = molecular target: ARF1-T31N-YFP (Arabidopsis thaliana) (UniProt P36397); assay: co-IP
[2] = molecular target: ARF1-Q71L-YFP (Arabidopsis thaliana) (UniProt P36397); assay: co-IP
[3] = molecular target: GNOM-ΔDCB(J(3A)) (Arabidopsis thaliana) (UniProt Q42510); assay: two-hybrid
[4] = molecular target: GNOM-ΔDCB (aa 232-1451) (Arabidopsis thaliana) (UniProt Q42510); assay: two-hybrid
[5] = molecular target: GNOM-ΔDCB(B4049) (aa 232-1451; G579R) (Arabidopsis thaliana) (UniProt Q42510); assay: two-hybrid
[6] = molecular target: GNOM-Myc (Arabidopsis thaliana) (UniProt Q42510); assay: co-IP
[7] = molecular target: GNOM-GFP (Arabidopsis thaliana) (UniProt Q42510); assay: co-IP
[8] = molecular target: GN-loop>J(3A)-Myc (Arabidopsis thaliana) (UniProt Q42510); assay: co-IP

| binding [1] | binding [7] | binding [8] | Substance | also measured |
| --- | --- | --- | --- | --- |
| binds |  |  | ARF-GEF GNOM (endogenous) (from UniProt Q42510) | binding [2]: no binding |
|  |  |  | GNOM-DCB (aa 1-246) (from UniProt Q42510) (domain or fragment) | binding [3]: binds; binding [4]: binds; binding [5]: no binding |
|  | binds | no binding | endogenous ARF1 (from UniProt P36397 1-181) | binding [6]: binds |
|  |  | binds | GNOM-GFP (from UniProt Q42510) |  |
| binds | binds |  | GN-loop>J(3A)-Myc (from UniProt Q42510) |  |
